Publication PMC3573893
No constants are given. Whether binding was seen depends on the method and setting. In cells and extracts the contact can be indirect. Some results given as binding are weak or reduced against the parent protein; the word gives no strength.

Protein sequences, listed by entry. Tags and fused reporters are not part of them. Lines headed by an entry give the natural chain unless they say otherwise; changes in a name come on top. Residues count along the entry.
UniProt P49582, residues 23-502: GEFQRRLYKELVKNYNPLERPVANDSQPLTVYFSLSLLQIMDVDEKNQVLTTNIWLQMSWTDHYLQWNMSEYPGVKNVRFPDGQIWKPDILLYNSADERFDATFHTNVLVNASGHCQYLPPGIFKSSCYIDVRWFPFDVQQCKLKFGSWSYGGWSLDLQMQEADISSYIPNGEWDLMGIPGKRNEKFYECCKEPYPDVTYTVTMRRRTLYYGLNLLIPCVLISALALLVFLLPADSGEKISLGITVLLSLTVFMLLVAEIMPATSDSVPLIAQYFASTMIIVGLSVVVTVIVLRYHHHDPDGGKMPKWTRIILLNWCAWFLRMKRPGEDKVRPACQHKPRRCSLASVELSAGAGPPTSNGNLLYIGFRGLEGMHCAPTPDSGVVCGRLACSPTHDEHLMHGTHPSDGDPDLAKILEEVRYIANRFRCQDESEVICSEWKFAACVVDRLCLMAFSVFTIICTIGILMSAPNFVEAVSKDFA
UniProt Q9ERK7: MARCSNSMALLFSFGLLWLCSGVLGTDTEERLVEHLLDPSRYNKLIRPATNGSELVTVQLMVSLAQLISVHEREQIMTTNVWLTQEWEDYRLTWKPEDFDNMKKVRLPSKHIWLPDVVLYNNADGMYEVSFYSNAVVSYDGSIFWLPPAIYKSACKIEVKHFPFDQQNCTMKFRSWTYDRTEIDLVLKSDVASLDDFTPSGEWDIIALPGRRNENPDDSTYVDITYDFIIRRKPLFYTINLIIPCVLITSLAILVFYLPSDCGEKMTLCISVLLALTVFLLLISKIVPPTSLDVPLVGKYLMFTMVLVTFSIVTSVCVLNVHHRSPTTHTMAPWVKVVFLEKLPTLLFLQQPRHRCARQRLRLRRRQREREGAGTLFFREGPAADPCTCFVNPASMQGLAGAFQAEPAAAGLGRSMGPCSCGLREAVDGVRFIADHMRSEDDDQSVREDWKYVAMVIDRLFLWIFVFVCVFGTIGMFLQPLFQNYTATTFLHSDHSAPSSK

Biological target: nicotinic acetylcholine receptor α7 subunit (mouse (endogenous in hippocampus and VDB tissue)) (UniProt P49582)
Assay: co-IP; detergent extracts (1% Triton X-100 lysis buffer) of wild type mouse hippocampus CA1 or VDB; IP with rabbit anti-α7 antiserum H302 at 4°C overnight, protein A/G-Sepharose; immunoblot with rat anti-β2 mAb270; β2 knockout hippocampus as control

binding: binds
Substance: nicotinic acetylcholine receptor β2 subunit (from UniProt Q9ERK7 26-501)
